# Laboratory results reported in publication doi:10.1101/2021.01.15.426831.
# By UniProt entry, the sequences of proteins in these tests, tags left out. Where a name states a change or a piece, a line headed by the entry shows the natural chain unless it says otherwise. Chains listed by the source or under a name are the forms on record and can include a tag or linker. Residues count along the entry.
# UniProt Q969U6: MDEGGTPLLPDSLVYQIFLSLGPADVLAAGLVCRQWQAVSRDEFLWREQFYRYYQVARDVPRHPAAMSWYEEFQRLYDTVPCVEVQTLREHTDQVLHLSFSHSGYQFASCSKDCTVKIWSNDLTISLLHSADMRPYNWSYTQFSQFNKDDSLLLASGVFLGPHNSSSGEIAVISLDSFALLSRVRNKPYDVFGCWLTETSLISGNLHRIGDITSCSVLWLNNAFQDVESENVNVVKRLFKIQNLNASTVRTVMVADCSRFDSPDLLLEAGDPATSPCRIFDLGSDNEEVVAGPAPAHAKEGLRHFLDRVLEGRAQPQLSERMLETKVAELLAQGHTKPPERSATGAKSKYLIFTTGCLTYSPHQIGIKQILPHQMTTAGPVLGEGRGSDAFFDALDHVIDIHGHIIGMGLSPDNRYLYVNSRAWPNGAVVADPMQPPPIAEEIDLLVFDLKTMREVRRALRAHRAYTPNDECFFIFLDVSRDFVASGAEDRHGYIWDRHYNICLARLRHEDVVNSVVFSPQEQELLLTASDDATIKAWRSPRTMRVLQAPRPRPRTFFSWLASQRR
# Skp1ΔΔ (P63208, form named): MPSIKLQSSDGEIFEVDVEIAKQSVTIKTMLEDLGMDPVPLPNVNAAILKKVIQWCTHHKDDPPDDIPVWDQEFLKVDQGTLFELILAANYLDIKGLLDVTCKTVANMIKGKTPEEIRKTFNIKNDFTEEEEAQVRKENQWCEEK
# UniProt Q969H0: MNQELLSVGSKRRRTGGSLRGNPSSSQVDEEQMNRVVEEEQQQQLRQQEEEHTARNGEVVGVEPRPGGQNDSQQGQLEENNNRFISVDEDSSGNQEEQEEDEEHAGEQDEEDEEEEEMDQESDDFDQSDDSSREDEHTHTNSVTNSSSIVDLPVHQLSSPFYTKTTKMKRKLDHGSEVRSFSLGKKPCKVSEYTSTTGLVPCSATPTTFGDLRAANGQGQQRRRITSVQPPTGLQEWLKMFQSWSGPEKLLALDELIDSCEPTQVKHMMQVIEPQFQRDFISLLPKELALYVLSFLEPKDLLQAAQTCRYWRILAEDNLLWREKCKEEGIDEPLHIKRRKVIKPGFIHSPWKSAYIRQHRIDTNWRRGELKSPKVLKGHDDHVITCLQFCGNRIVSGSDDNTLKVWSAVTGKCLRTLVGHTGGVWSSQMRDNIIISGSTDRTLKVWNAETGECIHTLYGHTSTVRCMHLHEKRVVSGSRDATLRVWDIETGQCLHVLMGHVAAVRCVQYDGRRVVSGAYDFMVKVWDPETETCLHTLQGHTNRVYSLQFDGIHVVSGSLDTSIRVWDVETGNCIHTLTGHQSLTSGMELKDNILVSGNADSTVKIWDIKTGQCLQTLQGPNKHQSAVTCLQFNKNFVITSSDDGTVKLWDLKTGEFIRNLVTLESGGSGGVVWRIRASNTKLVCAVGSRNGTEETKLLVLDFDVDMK
# UniProt O14964: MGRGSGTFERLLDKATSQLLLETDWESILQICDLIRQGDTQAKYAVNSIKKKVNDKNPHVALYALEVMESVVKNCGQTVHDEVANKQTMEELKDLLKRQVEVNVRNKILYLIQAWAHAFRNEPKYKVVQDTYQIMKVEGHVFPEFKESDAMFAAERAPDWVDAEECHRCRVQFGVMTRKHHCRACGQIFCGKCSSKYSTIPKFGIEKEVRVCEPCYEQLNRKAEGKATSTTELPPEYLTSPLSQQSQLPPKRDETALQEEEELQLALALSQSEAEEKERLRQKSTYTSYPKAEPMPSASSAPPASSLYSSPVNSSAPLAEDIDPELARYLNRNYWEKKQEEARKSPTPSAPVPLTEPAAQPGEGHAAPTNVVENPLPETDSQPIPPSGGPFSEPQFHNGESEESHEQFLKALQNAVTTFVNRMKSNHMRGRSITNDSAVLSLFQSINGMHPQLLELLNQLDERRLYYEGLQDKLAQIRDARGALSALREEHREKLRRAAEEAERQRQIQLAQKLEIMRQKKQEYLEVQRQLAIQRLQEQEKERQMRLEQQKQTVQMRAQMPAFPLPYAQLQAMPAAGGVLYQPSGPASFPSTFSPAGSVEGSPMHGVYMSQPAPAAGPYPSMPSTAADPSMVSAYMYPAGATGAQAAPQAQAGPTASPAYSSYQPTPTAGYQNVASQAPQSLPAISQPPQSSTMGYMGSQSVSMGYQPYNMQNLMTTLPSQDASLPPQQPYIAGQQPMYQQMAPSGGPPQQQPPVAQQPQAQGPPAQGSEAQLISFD
# UniProt O00139, residues 28-706: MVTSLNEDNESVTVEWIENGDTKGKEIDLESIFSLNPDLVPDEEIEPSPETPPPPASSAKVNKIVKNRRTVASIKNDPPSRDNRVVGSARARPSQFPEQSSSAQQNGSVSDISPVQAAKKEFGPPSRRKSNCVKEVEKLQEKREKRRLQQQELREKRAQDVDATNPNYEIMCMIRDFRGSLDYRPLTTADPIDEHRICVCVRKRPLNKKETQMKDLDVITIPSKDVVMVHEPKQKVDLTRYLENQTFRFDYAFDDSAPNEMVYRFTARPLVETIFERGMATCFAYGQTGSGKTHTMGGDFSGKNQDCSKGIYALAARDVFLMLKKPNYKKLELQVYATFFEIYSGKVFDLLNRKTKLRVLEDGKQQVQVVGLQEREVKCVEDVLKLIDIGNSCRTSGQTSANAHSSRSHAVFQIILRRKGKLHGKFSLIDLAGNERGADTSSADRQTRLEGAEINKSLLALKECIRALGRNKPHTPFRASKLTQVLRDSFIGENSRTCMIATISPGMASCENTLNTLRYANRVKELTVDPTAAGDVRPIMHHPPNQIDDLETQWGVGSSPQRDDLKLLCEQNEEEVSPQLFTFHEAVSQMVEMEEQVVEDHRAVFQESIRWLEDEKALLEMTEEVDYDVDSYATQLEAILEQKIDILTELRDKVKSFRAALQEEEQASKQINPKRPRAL
# UniProt Q8N4N8: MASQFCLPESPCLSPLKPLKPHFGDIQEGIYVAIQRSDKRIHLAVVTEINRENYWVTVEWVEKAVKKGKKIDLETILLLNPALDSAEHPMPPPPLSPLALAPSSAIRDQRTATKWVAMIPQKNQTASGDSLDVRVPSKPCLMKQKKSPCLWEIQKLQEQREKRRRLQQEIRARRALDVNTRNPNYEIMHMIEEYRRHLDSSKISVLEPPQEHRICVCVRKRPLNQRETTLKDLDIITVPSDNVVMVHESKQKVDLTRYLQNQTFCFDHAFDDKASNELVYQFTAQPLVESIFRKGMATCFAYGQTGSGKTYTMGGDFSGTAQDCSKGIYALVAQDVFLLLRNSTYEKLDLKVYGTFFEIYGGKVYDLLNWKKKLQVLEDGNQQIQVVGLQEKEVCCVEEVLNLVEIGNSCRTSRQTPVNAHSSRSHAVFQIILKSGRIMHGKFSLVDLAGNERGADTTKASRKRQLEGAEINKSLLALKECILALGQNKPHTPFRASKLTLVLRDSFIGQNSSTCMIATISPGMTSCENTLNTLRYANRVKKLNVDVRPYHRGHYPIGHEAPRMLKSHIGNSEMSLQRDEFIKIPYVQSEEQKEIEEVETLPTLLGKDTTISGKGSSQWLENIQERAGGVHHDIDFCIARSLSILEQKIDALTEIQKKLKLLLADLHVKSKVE
# UniProt P09211: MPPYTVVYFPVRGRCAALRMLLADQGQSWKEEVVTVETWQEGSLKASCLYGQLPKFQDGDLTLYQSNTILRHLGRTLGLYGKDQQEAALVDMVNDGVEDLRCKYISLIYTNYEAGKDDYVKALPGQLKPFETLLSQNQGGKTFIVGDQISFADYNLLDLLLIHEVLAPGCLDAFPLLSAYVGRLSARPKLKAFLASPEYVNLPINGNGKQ
# Read-outs that look alike come from different tables or passages of the source. These are yes or no findings as the source states them, for the method shown. For part of these data: Binding seen in cells or lysates may run through a third protein. Some binding calls cover weakened binding; strength is not graded here. For part of these data: Where a sequence is shown, tags or fusion partners need not be part of it.
# How the values were obtained:
# [1] = target: Flag-Fbxw5 (full length) (human) (UniProt Q969U6); experiment: co-IP
# [2] = target: endogenous Fbxw5 (human (endogenous; all cell lines of the paper are human)) (UniProt Q969U6); experiment: co-IP
# [3] = target: Fbxw5 expressed in Sf21 cells (human) (UniProt Q969U6); experiment: co-purification
# [4] = target: Fbxw5/Skp1 sub-complex (human) (UniProt Q969U6+P63208); experiment: pull-down
# [5] = target: Flag-Fbxw5 (full length) (human) (UniProt Q969U6); experiment: co-IP; remark: listed apart in the source
# [6] = target: Fbxw7 (human) (UniProt Q969H0); experiment: co-IP
# [7] = target: HaloTag(HT)-tagged Fbxw5 (human) (UniProt Q969U6); experiment: FRET or BRET
molecule,measurement,setting,value
endogenous HGS (from UniProt O14964 1-777),binding,[1],binds
same,binding,[2],binds
HA-Kif2A (from UniProt O00139-1 1-679),binding,[1],binds weakly
Skp1ΔΔ (from UniProt P63208 1-163),binding,[3],binds
HA-Kif2B (from UniProt Q8N4N8 1-673),binding,[1],binds
endogenous GSTP1 (from UniProt P09211 1-210),binding,[1],binds
Kif2A purified from Sf21 cells (from UniProt O00139-1 1-679),binding,[4],binds
"HA-MCAK (protein, UniProt Q99661 1-725) MAMDSSLQARLFPGLAIKIQRSNGLIHSANVRTVNLEKSCVSVEWAEGGATKGKEIDFDDVAAINPELLQLLPLHPKDNLPLQENVTIQKQKRRSVNSKIPAPKESLRSRSTRMSTVSELRITAQENDMEVELPAAANSRKQFSVPPAPTRPSCPAVAEIPLRMVSEEMEEQVHSIRGSSSANPVNSVRRKSCLVKEVEKMKNKREEKKAQNSEMRMKRAQEYDSSFPNWEFARMIKEFRATLECHPLTMTDPIEEHRICVCVRKRPLNKQELAKKEIDVISIPSKCLLLVHEPKLKVDLTKYLENQAFCFDFAFDETASNEVVYRFTARPLVQTIFEGGKATCFAYGQTGSGKTHTMGGDLSGKAQNASKGIYAMASRDVFLLKNQPCYRKLGLEVYVTFFEIYNGKLFDLLNKKAKLRVLEDGKQQVQVVGLQEHLVNSADDVIKMIDMGSACRTSGQTFANSNSSRSHACFQIILRAKGRMHGKFSLVDLAGNERGADTSSADRQTRMEGAEINKSLLALKECIRALGQNKAHTPFRESKLTQVLRDSFIGENSRTCMIATISPGISSCEYTLNTLRYADRVKELSPHSGPSGEQLIQMETEEMEACSNGALIPGNLSKEEEELSSQMSSFNEAMTQIRELEEKAMEELKEIIQQGPDWLELSEMTEQPDYDLETFVNKAESALAQQAKHFSALRDVIKALRLAMQLEEQASRQISSKKRPQ",binding,[5],binds
same,binding,[6],no binding
"endogenous CSRP2 (protein, UniProt Q16527 1-193) MPVWGGGNKCGACGRTVYHAEEVQCDGRSFHRCCFLCMVCRKNLDSTTVAIHDEEIYCKSCYGKKYGPKGYGYGQGAGTLNMDRGERLGIKPESVQPHRPTTNPNTSKFAQKYGGAEKCSRCGDSVYAAEKIIGAGKPWHKNCFRCAKCGKSLESTTLTEKEGEIYCKGCYAKNFGPKGFGYGQGAGALVHAQ",binding,[5],binds
"MCAK purified from Sf21 cells (protein, UniProt Q99661 1-725) MAMDSSLQARLFPGLAIKIQRSNGLIHSANVRTVNLEKSCVSVEWAEGGATKGKEIDFDDVAAINPELLQLLPLHPKDNLPLQENVTIQKQKRRSVNSKIPAPKESLRSRSTRMSTVSELRITAQENDMEVELPAAANSRKQFSVPPAPTRPSCPAVAEIPLRMVSEEMEEQVHSIRGSSSANPVNSVRRKSCLVKEVEKMKNKREEKKAQNSEMRMKRAQEYDSSFPNWEFARMIKEFRATLECHPLTMTDPIEEHRICVCVRKRPLNKQELAKKEIDVISIPSKCLLLVHEPKLKVDLTKYLENQAFCFDFAFDETASNEVVYRFTARPLVQTIFEGGKATCFAYGQTGSGKTHTMGGDLSGKAQNASKGIYAMASRDVFLLKNQPCYRKLGLEVYVTFFEIYNGKLFDLLNKKAKLRVLEDGKQQVQVVGLQEHLVNSADDVIKMIDMGSACRTSGQTFANSNSSRSHACFQIILRAKGRMHGKFSLVDLAGNERGADTSSADRQTRMEGAEINKSLLALKECIRALGQNKAHTPFRESKLTQVLRDSFIGENSRTCMIATISPGISSCEYTLNTLRYADRVKELSPHSGPSGEQLIQMETEEMEACSNGALIPGNLSKEEEELSSQMSSFNEAMTQIRELEEKAMEELKEIIQQGPDWLELSEMTEQPDYDLETFVNKAESALAQQAKHFSALRDVIKALRLAMQLEEQASRQISSKKRPQ",binding,[4],binds
"MCAK fused to NanoLuc luciferase (protein, UniProt Q99661 1-725) MAMDSSLQARLFPGLAIKIQRSNGLIHSANVRTVNLEKSCVSVEWAEGGATKGKEIDFDDVAAINPELLQLLPLHPKDNLPLQENVTIQKQKRRSVNSKIPAPKESLRSRSTRMSTVSELRITAQENDMEVELPAAANSRKQFSVPPAPTRPSCPAVAEIPLRMVSEEMEEQVHSIRGSSSANPVNSVRRKSCLVKEVEKMKNKREEKKAQNSEMRMKRAQEYDSSFPNWEFARMIKEFRATLECHPLTMTDPIEEHRICVCVRKRPLNKQELAKKEIDVISIPSKCLLLVHEPKLKVDLTKYLENQAFCFDFAFDETASNEVVYRFTARPLVQTIFEGGKATCFAYGQTGSGKTHTMGGDLSGKAQNASKGIYAMASRDVFLLKNQPCYRKLGLEVYVTFFEIYNGKLFDLLNKKAKLRVLEDGKQQVQVVGLQEHLVNSADDVIKMIDMGSACRTSGQTFANSNSSRSHACFQIILRAKGRMHGKFSLVDLAGNERGADTSSADRQTRMEGAEINKSLLALKECIRALGQNKAHTPFRESKLTQVLRDSFIGENSRTCMIATISPGISSCEYTLNTLRYADRVKELSPHSGPSGEQLIQMETEEMEACSNGALIPGNLSKEEEELSSQMSSFNEAMTQIRELEEKAMEELKEIIQQGPDWLELSEMTEQPDYDLETFVNKAESALAQQAKHFSALRDVIKALRLAMQLEEQASRQISSKKRPQ",binding,[7],binds
